No constants are given. Whether binding was seen depends on the method and setting. In cells and extracts the contact can be indirect. Some entries that bind do so weakly or less than the wild type. For part of these data: Where a sequence is shown, tags or fusion partners need not be part of it.
Experiments:
Assay in all cases: co-IP; HeLa cells transfected with the indicated plasmids, lysed after 24 h in CHAPSO buffer (1% CHAPSO, 150 mM NaCl, 5 mM EDTA, 50 mM Tris pH 7.6); lysate with anti-IER3IP1, anti-EGFP, anti-V5 or anti-FLAG overnight in the cold, Dynabeads Protein G, 5 washes, immunoblot
EGFP-ERGIC53 = target: T1, EGFP-ERGIC53 (UniProt P49257)
T1 sequence: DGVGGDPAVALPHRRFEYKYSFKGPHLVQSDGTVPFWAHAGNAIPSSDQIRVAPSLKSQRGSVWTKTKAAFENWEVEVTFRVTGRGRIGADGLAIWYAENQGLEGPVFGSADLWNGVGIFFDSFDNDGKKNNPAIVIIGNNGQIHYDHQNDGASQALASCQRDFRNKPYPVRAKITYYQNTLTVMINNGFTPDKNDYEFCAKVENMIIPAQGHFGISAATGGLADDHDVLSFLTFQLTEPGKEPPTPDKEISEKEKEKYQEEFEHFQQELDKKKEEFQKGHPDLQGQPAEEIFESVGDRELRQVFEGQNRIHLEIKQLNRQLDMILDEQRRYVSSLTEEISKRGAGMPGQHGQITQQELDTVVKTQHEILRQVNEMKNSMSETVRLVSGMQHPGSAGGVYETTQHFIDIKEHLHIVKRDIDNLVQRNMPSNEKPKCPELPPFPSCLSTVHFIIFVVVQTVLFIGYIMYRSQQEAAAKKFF

By UniProt entry, the sequences of proteins in these tests, tags left out. Residues count along the entry.
UniProt Q8K1S3, residues 27-945: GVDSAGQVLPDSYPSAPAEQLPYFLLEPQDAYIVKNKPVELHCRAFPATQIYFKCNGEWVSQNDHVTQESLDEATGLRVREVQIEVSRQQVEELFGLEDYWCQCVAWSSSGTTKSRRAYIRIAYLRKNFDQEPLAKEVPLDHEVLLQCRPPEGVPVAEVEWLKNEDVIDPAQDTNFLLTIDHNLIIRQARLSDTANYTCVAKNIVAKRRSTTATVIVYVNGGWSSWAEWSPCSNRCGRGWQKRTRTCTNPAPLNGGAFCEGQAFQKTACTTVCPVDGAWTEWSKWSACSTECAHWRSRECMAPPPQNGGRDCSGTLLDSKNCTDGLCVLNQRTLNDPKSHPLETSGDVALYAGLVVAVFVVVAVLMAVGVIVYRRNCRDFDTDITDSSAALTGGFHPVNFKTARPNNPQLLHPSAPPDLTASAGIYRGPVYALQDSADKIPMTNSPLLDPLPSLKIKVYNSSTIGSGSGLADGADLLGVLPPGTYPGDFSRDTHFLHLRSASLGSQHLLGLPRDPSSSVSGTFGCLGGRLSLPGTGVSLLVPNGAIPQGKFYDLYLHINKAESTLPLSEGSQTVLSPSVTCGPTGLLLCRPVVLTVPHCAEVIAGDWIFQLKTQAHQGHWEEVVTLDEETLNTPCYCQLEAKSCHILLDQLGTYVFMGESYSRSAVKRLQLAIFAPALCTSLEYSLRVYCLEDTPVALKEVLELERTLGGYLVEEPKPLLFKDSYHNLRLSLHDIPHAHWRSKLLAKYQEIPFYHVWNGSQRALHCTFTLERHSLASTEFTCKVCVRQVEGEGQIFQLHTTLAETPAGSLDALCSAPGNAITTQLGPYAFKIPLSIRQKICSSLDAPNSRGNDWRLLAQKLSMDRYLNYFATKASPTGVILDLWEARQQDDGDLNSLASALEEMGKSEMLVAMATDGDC
UniProt P22607, residues 23-806: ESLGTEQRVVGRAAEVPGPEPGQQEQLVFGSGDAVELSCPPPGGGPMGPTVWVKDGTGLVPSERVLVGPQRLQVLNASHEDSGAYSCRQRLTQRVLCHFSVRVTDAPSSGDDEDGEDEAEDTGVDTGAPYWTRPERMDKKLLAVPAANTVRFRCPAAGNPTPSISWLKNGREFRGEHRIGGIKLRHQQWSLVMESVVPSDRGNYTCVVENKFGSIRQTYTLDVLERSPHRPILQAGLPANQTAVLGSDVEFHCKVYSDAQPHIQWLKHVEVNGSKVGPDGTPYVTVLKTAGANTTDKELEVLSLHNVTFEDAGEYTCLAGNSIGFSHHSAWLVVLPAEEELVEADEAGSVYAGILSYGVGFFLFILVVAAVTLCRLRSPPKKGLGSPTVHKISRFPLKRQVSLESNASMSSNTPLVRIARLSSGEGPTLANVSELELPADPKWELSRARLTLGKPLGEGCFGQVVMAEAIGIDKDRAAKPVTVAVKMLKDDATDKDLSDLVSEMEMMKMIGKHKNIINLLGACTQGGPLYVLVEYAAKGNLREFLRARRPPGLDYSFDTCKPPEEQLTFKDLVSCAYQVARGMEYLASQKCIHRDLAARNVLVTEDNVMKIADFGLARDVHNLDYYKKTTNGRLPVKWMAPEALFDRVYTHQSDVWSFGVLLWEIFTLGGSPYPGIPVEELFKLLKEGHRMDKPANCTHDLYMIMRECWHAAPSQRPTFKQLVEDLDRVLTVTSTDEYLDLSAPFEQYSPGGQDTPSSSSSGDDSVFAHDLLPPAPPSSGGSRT

Unc5B-FLAG = Unc5B-FLAG (UniProt Q8K1S3)
FGFR3-V5 = FGFR3-V5 (UniProt P22607)

Measured: binding

B1: Immediate Early Response-3 Interacting Protein 1 (IER3IP1) (protein, UniProt Q9Y5U9 1-82)
chain: MAFTLYSLLQAALLCVNAIAVLHEERFLKNIGWGTDQGIGGFGEEPGIKSQLMNLIRSVRTVMRVPLIIVNSIAIVLLLLFG
binds: all assays above

— publication PMC11335259
